Among the data in PubChem BioAssay AID1487 (National Center for Advancing Translational Sciences (NCATS), 2009) are AC50 values, retold here.

Structures are written as SMILES. This is one part of the list. These are further read-outs of the screen, such as a control signal, another cell line or another target. No call is given for them. Compounds called inactive in the main read-out are mostly missing here. Potencies come from curve fits of mixed quality, noted in brackets.

This assay in a line: qHTS Assay for Modulators of Lamin A Splicing. The conditions noted are these: HeLa LMNA splicing GFP/RFP minigene ratio, 48 h. In outline: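 Read-out is the ratio of GFP to DsRed2 object intensity, acquired by 488 nm laser-scanning cytometry on HeLa lamin A-EGFP minigene reporter cells. Compound incubation 48 hrs at 37 °C in Opti-MEM with 2% FBS; DMSO 0.5% final.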
Where [1] appears, read: measured here: GFP splicing reporter channel.
Setting [2] is: measured here: RFP viability control channel.

The AC50 is the concentration giving half of the maximal activity seen. With `CC[n+]1c(SC)ccc2cc(OC)ccc21`, the AC50 runs as follows: under setting [1], 31.6 µM [rising, single point]; under setting [2], 35.5 µM [rising, single point].

On to `O=C(O)CCn1cc(C=C2C(=O)NC(=O)NC2=O)c(-c2cc3ccccc3oc2=O)n1`, for which the concentration at half-maximal activity (AC50) under setting [1] was 0.178 µM [rising, full curve, poor fit].

Regarding `COCc1ccc(CN2CCCC(C(=O)c3sccc3C)C2)o1` (stereo not drawn), the AC50 under setting [2] was 0.02 µM [falling, full curve, poor fit]. As for `C[C@]12C=CC(=O)C=C1CC[C@@H]1[C@@H]2CC[C@@]2(C)[C@H]1CC[C@]2(C)O`, the AC50 was 0.891 µM [falling, partial curve] under setting [1] and 0.316 µM [rising, full curve, poor fit] under setting [2]. `c1ccc2c(c1)CN1CCCC1=N2`: the AC50 was 7.08 µM [rising, partial curve] under setting [1] and 10 µM [rising, partial curve, poor fit] under setting [2].

On to `CCN(CC)C(=O)Oc1ccc2ccccc2c1Cl`, for which the AC50 is, setting by setting: under setting [1], 20 µM [rising, single point]; under setting [2], 12.6 µM [rising, single point]. For `CC(=O)N1CCCSC1=Nc1ccccc1`, the AC50 under setting [2] was 11.2 µM [rising, partial curve, poor fit]. As for `Cc1cc(SCC(=O)N/N=C/c2ccco2)nc2ccccc12`, the AC50 under setting [1] is 12.6 µM [falling, partial curve, poor fit] and the AC50 under setting [2] was 22.4 µM [falling, partial curve]. For the compound `NS(=O)(=O)c1ccc(N2CCNCC2)cc1`, the AC50 runs as follows: under setting [1], 1.26 µM [rising, single point]; under setting [2], 1.26 µM [rising, single point]. Take `O=C(N/N=C/c1c(O)n(CCC2=CCCCC2)c(=O)[nH]c1=O)c1ccccc1`: the AC50 under setting [2] was 20 µM [rising, single point]. As to `C=CCN1C[C@@H](C)N([C@H](c2ccc(C(=O)N(CC)CC)cc2)c2cccc(OC)c2)C[C@@H]1C`, the AC50 by setting is: under setting [1], 5.62 µM [falling, partial curve, poor fit]; under setting [2], 6.31 µM [falling, single point].

Take `Cc1c(C(=O)N2CCC3(CC2)OCCO3)oc2ccc(S(=O)(=O)N3CCCCC3)cc12`: the half-maximal activity concentration (AC50) under setting [1] is 0.0891 µM [rising, full curve].

Consider `CCOC(=O)C1=CC(OC(CC)CC)C(NC(C)=O)C(N)C1` (stereo not drawn), for which, under setting [2], the half-maximal activity concentration (AC50) was 6.31 µM [falling, partial curve, poor fit]. As to `Nc1ccc2nonc2c1[N+](=O)[O-]`, the AC50 under setting [1] is 0.00794 µM [rising, full curve, poor fit]. `CCCCNCC(O)c1ccc(O)cc1` (stereo not drawn): the concentration at half-maximal activity (AC50) under setting [1] was 2.51 µM [falling, single point] and the concentration at half-maximal activity (AC50) under setting [2] was 7.94 µM [rising, partial curve, poor fit]. With `c1ccc2c(N3CCNCC3)cccc2c1`, the AC50 under setting [2] is 0.00562 µM [falling, full curve, poor fit]. Regarding `CCOC(=O)c1cn2nc(OP(=S)(OCC)OCC)cc2nc1C`, the half-maximal activity concentration (AC50) under setting [1] was 20 µM [rising, single point]. On the same count and under the same terms, under `CN1CCN(CC(=O)Nc2ccc([N+](=O)[O-])cc2C(=O)c2ccccc2)CC1` stands 0.158 µM [falling, single point].

`C[C@H]1CCCC(=O)CCC/C=C/c2cc(O)cc(O)c2C(=O)O1`: the AC50 was 15.8 µM [falling, single point] under setting [1] and 17.8 µM [rising, single point] under setting [2]. For `COc1ccccc1/C=N/N=C(/N)N[N+](=O)[O-]`, under setting [2], the AC50 was 11.2 µM [rising, single point]. In the case of `Cc1cccc(OCC(=O)N2CCN(Cc3cc(=O)n4nc(-c5ccccc5Cl)sc4n3)CC2)c1`, the AC50 under setting [1] was 0.316 µM [rising, full curve, poor fit].

In the case of `CCOCCCn1c(N)c(C(=O)Nc2sc3c(c2C(=O)OC)CCCC3)c2nc3ccccc3nc21`, the concentration at half-maximal activity (AC50) under setting [1] was 12.6 µM [falling, partial curve] and the AC50 under setting [2] is 35.5 µM [falling, single point].

As for `CC(C)=CCCC1(C)C=Cc2c(O)c3c(c(CC=C(C)C)c2O1)OC12C(=CC4CC1C(C)(C)OC2(C/C=C(/C)C(=O)O)C4O)C3=O` (stereo not drawn), the AC50 was 7.08 µM [falling, partial curve] under setting [1] and 6.31 µM [falling, full curve] under setting [2]. Turning to `O=C1C(=O)c2ccccc2-c2ccccc21`, the concentration at half-maximal activity (AC50) was 2.82 µM [falling, full curve] under setting [1] and 3.16 µM [falling, full curve] under setting [2].

Take `COC(=O)C(c1ccccc1)C1CCCCN1` (stereo not drawn): the AC50 under setting [1] is 0.000794 µM [falling, full curve, poor fit]. For the compound `CC(C)c1ccc(NC(=O)c2ccc(F)c(S(=O)(=O)N3CCc4ccccc4C3)c2)cc1`, the half-maximal activity concentration (AC50) was 6.31 µM [falling, full curve, poor fit] under setting [1] and 6.31 µM [falling, full curve, poor fit] under setting [2]. In the case of `CCN(CC)CCCN=Cc1c(O)n(Cc2ccc(F)cc2)c(=O)[nH]c1=O`, under setting [2], the AC50 is 0.0708 µM [falling, full curve, poor fit]. On the same count and under the same terms, under `COc1c(O)ccc2c1-c1c3c(cc4c1C(C2)N(C)CC4)OCO3` (stereo not drawn) stands 12.6 µM [rising, single point]. Consider `CCOC(=O)C1(CCOc2ccccc2)CCN(C2Cc3ccccc3C2)CC1`, for which the half-maximal activity concentration (AC50) under setting [1] is 5.01 µM [rising, single point]. On to `CC(C)NC[C@@H](O)COc1cccc2[nH]ccc12`, for which the concentration at half-maximal activity (AC50) under setting [2] was 0.000794 µM [falling, full curve, poor fit].

Regarding `OC1/C(=C/c2ccccc2C(F)(F)F)N2CCC1CC2` (stereo not drawn), the half-maximal activity concentration (AC50) under setting [1] was 0.0562 µM [falling, partial curve, poor fit]. The same measure, in the same setting: under `O=c1c2ccccc2nc(-c2ccco2)n1-c1ccncc1` stands 25.1 µM [rising, single point].

As for `CC(=O)NC(=O)NC(C)Cc1ccccc1` (stereo not drawn), the AC50 under setting [2] is 1 µM [falling, full curve, poor fit].

Turning to `CNCC[C@H](Oc1ccc(C(F)(F)F)cc1)c1ccccc1`, the AC50 is 12.6 µM [falling, partial curve] under setting [1] and 0.00447 µM [falling, full curve, poor fit] under setting [2]. As to `Cn1c(CN2CCN(C(=O)COc3ccccc3)CC2)nc2cc([N+](=O)[O-])ccc21`, the concentration at half-maximal activity (AC50) under setting [2] is 25.1 µM [rising, single point]. Regarding `Cc1nn(Cc2ccccc2)c(C)c1C(=O)NCc1ccccc1`, the AC50 under setting [2] is 35.5 µM [falling, single point].

Turning to `Cc1ccc(CN2CC3CC(C2)c2cccc(=O)n2C3)cc1` (stereo not drawn), the concentration at half-maximal activity (AC50) under setting [2] is 14.1 µM [rising, partial curve]. On the same count and under the same terms, the figure for `Cc1ccc2c(c1)C1CN(C)CCC1N2C(=O)c1ccccc1NS(=O)(=O)c1cccc(C(F)(F)F)c1` (stereo not drawn) is 0.794 µM [rising, partial curve, poor fit]. Turning to `CN1C(=O)CN=C(c2ccccc2)c2cc([N+](=O)[O-])ccc21`, the AC50 under setting [1] is 11.2 µM [falling, single point] and the half-maximal activity concentration (AC50) under setting [2] is 11.2 µM [falling, partial curve, poor fit]. For the compound `CCCCn1c(=O)c(C(=O)NCc2ccncc2)c(O)c2ccccc21`, the AC50 under setting [2] was 31.6 µM [rising, single point]. Turning to `Cc1nc2c(=O)n(C)c(=O)nc-2n(C)n1`, the concentration at half-maximal activity (AC50) reads like this: under setting [1], 4.47 µM [falling, full curve]; under setting [2], 2 µM [falling, full curve]. For the compound `CC1CCc2c(sc3nc(CSc4n[nH]c(N)n4)[nH]c(=O)c23)C1` (stereo not drawn), the half-maximal activity concentration (AC50) under setting [1] is 0.0891 µM [rising, full curve, poor fit] and the concentration at half-maximal activity (AC50) under setting [2] is 0.178 µM [rising, full curve, poor fit]. For `Cc1ccccc1-c1nn2c(=O)cc(CN3CCN(C(=O)COc4ccccc4Cl)CC3)nc2s1`, the half-maximal activity concentration (AC50) under setting [1] was 35.5 µM [falling, single point]. As for `COc1ccc(CN2CCCC(C(=O)c3sccc3C)C2)cc1O` (stereo not drawn), the AC50 under setting [1] is 2 µM [falling, single point] and the concentration at half-maximal activity (AC50) under setting [2] is 1.78 µM [falling, partial curve]. For `O=C(Nc1ccc2nc(-c3cccs3)c(-c3cccs3)nc2c1)NC1CC1`, under setting [2], the half-maximal activity concentration (AC50) is 15.8 µM [rising, single point]. Still for that read-out and setting: the figure for `COc1cc(CCN)ccc1O` is 0.00501 µM [falling, full curve, poor fit]. For `NC(N)=N/N=C/c1c(Cl)cccc1Cl`, the half-maximal activity concentration (AC50) under setting [2] was 0.00282 µM [falling, full curve, poor fit]. Take `CCCN(CCC)[C@@H]1CCc2cccc(O)c2C1`: the AC50 was 6.31 µM [falling, partial curve, poor fit] under setting [1] and 0.00562 µM [falling, full curve, poor fit] under setting [2]. Turning to `CC(=O)N(C1=NCCCS1)c1ccccc1Cl`, the half-maximal activity concentration (AC50) under setting [1] is 0.708 µM [falling, full curve]. Take `C=CCn1c(O)c(C(CC)=NCc2cccnc2)c(=O)[nH]c1=O`: the AC50 under setting [2] is 1.12 µM [rising, single point]. For `O=C(Cc1ccccc1)NC(Oc1ccccc1Cl)C(Cl)(Cl)Cl` (stereo not drawn), under setting [2], the AC50 was 0.1 µM [rising, full curve, poor fit]. As to `Cc1c2cnn(CC(=O)N3CCC4(CC3)OCCO4)c(=O)c2c(C)n1Cc1ccc(F)cc1`, the concentration at half-maximal activity (AC50) was 15.8 µM [rising, partial curve] under setting [1] and 15.8 µM [rising, partial curve] under setting [2]. Turning to `N#Cc1ccccc1Cn1cc(C(=O)C2CC2)c2ccccc21`, the AC50 by setting is: under setting [1], 3.16 µM [falling, partial curve]; under setting [2], 5.62 µM [falling, partial curve]. As for `CCCC(C)C1(CC)C(=O)NC(=Nc2ccc(F)cc2)NC1=O` (stereo not drawn), under setting [2], the AC50 is 22.4 µM [rising, single point]. For `Cc1ccc(N2C(=O)NC(=O)/C(=C/C=C/c3ccco3)C2=O)cc1`, the AC50 under setting [1] is 22.4 µM [falling, partial curve, poor fit] and the AC50 under setting [2] is 4.47 µM [falling, partial curve, poor fit].

Take `CC1CCC/C=C/C2CC(O)CC2C(O)/C=C/C(=O)O1` (stereo not drawn): the AC50 under setting [2] is 12.6 µM [rising, single point].
